Source: PubChem BioAssay AID1671190 (National Center for Advancing Translational Sciences (NCATS), 2021)
Values joined by “and” are separate entries in the source; they are usually repeats but may differ in a detail not shown here. Equal values may be shown once. In all, about 580,000 compounds went through this assay and about 6,100 (1.1%) were called active. The inconclusive results got no clear call from the source; some entries with a clear call stand among them for comparison. The call rests on the fitted dose curve; in most records, active means well fitted inhibition curve with a large enough effect; inconclusive means small, poorly fitted or top-dose-only effect, or another doubt; inactive means no such curve, though single readings can be large or run the other way. Potencies of inconclusive entries are doubtful fits and often do not repeat.

Sequences of proteins named here, by UniProt entry; tags and fusion partners are left off. A change or cut given only in a name is not applied to a line headed by its entry.
UniProt P18054: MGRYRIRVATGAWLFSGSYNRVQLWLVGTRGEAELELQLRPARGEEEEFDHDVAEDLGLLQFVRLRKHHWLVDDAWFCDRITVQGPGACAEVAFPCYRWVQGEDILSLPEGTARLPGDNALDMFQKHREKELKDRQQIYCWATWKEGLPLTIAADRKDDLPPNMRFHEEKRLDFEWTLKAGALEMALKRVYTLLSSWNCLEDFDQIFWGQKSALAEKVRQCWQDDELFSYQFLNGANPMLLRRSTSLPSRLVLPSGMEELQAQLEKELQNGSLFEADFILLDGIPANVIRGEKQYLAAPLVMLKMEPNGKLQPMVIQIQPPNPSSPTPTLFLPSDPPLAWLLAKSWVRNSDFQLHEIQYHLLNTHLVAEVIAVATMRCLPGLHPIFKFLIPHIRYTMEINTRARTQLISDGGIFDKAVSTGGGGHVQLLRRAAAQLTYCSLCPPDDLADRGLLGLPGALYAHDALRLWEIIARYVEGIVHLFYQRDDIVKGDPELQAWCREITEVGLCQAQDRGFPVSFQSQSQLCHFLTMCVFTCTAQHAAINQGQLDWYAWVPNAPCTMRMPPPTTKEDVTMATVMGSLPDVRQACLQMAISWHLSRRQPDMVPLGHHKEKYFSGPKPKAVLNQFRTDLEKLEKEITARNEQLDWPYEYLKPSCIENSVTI

What follows are compounds tested against Polyunsaturated fatty acid lipoxygenase ALOX12 (Homo sapiens) (UniProt P18054) (assay: Primary qHTS assay for inhibitors of human arachidonate 12S-lipoxygenase (ALOX12): Round 2). Conditions: purified 12hLO, xylenol orange hydroperoxide absorbance; activity change, negative = inhibition: at 108 µM (top of the series) unless noted.
How it was run: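 Purified human 12hLO (150 nM final) in 25 mM Hepes, 0.01% Triton X-100, pH 7.0 was preincubated 15 min at room temperature with compound. Then 40 uM arachidonic acid was added, 30 min. Hydroperoxide was read by Fe-XO absorbance ratio 573/405 nm.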
On the % scale 0 is the no-effect control and ±100 the full control effect; potency means the concentration at half of the fitted maximal effect.

Structure (SMILES)	Potency	activity change, negative = inhibition
Cc1cc(-n2cnc3c(=O)[nH]cnc32)ccc1N	inactive	–
COc1ccc(N2Cc3c(NCCc4ccc(Cl)cc4)ncnc3N(C)CC2=O)cc1	inactive	–
COc1cc(C=C2C(=O)c3ccccc3C2=O)cc(OC)c1OC	inconclusive: 79.4 µM [inhibitor, single point]	–
CC(C)C1OC2(C)OC(=N)C1(C#N)C(C#N)(C#N)C2c1ccccc1 (stereo not given)	inconclusive: 79.4 µM [inhibitor, single point]	–
CC1=C(C(=O)N(C)C)CC(CC(=O)NCC2CCCCC2)C(=O)N1Cc1ccccc1 (stereo not given)	inconclusive: 112 µM [inhibitor, single point]	–
Cc1nn(-c2ccccc2)c(C)c1CC(=O)NC1CCCc2c1[nH]c1ccccc21 (stereo not given)	inconclusive: 28.2 µM [inhibitor, partial curve]	–
O=C(NC1CCCC1)c1ccc2c(c1)N(Cc1ccccc1)C(=O)c1ccccc1S2	inactive	–
COc1ccccc1C(=O)Nc1ccc2c(c1)n(C)c(=O)n2C	inconclusive: 44.7 µM [inhibitor, partial curve, poor fit]	–
Cc1cc(NC(=O)NCC(c2ccco2)N(C)C)no1 (stereo not given)	inactive	–
COc1ccc2[nH]cc(CCN3C(=O)c4ccc(C(=O)O)cc4C3=O)c2c1	inconclusive: 50.1 µM [inhibitor, partial curve, poor fit]	–
CN(CCOC(=O)/C=C/c1ccccc1)Cc1ccccc1	inactive	–
Cc1cc(C(=O)CSc2ncnc3ccccc23)c(C)n1CC(F)(F)F	inactive	–
CCCCN(Cc1ccccc1)c1ccc(NS(=O)(=O)c2c(C)cc(C)cc2C)cc1C(=O)O	inconclusive: 35.5 µM [inhibitor, single point]	–
c1ccc2c(c1)CCN(Cc1ccc3c(c1)CNCCO3)C2	inactive	–
O=C(COC(=O)c1cc(=O)c2ccccc2o1)Nc1ccc(F)cc1F	inconclusive: 63.1 µM [inhibitor, single point]	–
CC(C)(C)c1ccc(CC(=O)N2CCC2(C)C(=O)NS(=O)(=O)c2cccc(Cl)c2)cc1 (stereo not given)	inconclusive: 56.2 µM [inhibitor, partial curve, poor fit]	–
O=C(c1ccc(Br)cc1)C(CN1CCOCC1)c1ccccc1 (stereo not given)	inactive	–
Cc1ccc(S(=O)(=O)Oc2ccccc2/C=N/NC(N)=S)cc1	inconclusive: 56.2 µM [inhibitor, partial curve, poor fit]	–
COc1ccccc1CNC(=O)c1ccc(-c2ccccc2Cl)o1	inconclusive: 44.7 µM [inhibitor, partial curve, poor fit]	–
O=C(Nc1cccc(C(F)(F)F)c1)C1Cc2c(-c3cccc(F)c3)ccnc2O1 (stereo not given)	inconclusive: 100 µM [inhibitor, partial curve, poor fit]	–
COc1cccc(C=NN2CCCCCC2)c1OC	inconclusive: 79.4 µM [inhibitor, single point]	–
CC(C)(C)NC(=O)CSc1ccc(S(=O)(=O)N2CCOCC2)cn1	inconclusive: 126 µM [inhibitor, single point]	–
COc1ccc(C2=C(N3CCN(c4cccc(C)c4)C(C)C3)c3ccccc3C2=O)cc1 (stereo not given)	–	inconclusive: -32.2% [inhibitor]

Structure (SMILES)	Potency	activity change, negative = inhibition
CCN(C(=O)COC(=O)Cc1coc2cc(C)ccc12)c1c(N)n(Cc2ccccc2)c(=O)[nH]c1=O	inconclusive: 79.4 µM [inhibitor, single point]	–
Cc1noc(C)c1[S+](=O)([O-])N1CCn2cc(C(=O)NCc3ccc(Cl)nc3)nc2C1	–	inactive: 7.75% [at 6.33 µM]
Cc1ccc(F)cc1NC(=O)Cn1c(C)cc(C)c(C#N)c1=O	inactive	–
O=C(NNC(=O)C12CCC(CC1)C2)c1ccncc1	inactive	–
COc1ccc(N2CCN(Cc3nc4c(c(=O)[nH]c(=O)n4C)n3CC(C)C)CC2)cc1	inconclusive: 17.8 µM [inhibitor, partial curve]	–
Cc1ccsc1/C=C1\CCc2ccccc2C1=O	inactive	–
CCCCCn1nc(C(=O)NCc2ccco2)c2ccccc2c1=O	inconclusive: 89.1 µM [inhibitor, single point]	–
CCOC(=O)Nc1sc(=S)n(C)c1C	inconclusive: 100 µM [inhibitor, partial curve, poor fit]	–
CCc1cc(Cn2nc(-c3ccccc3)cc2C(=O)O)on1	inconclusive: 31.6 µM [inhibitor, single point]	–
C(=C\c1nc(-c2ccccc2)no1)/c1ccccc1	inactive	–
Cc1nc(N2CCC(C(=O)Nc3ccc(F)c(Cl)c3)CC2)cc(C(F)(F)F)n1	inconclusive: 25.1 µM [inhibitor, full curve, poor fit]	–
CCOC(=O)N1CCN(C(=O)Cn2nc(C)n3nc(-c4ccc(CC)cc4)cc3c2=O)CC1	inactive	–
Cc1ccccc1-c1ccc2ncnc(N3CCOCC3)c2c1	inconclusive: 100 µM [inhibitor, partial curve, poor fit]	–
CCc1ccc(OCCCCCn2ccnc2)cc1	active: 1.26 µM	–
Cn1cc(-c2cc3c(Nc4ccc(OC(F)(F)F)cc4)nccc3[nH]2)cn1	inconclusive: 50.1 µM [inhibitor, partial curve, poor fit]	–
COc1cc(OC)c(C2=NOC(C(=O)N3CCCc4ccccc43)C2)cc1Cl (stereo not given)	inactive	–
Nc1ncn([C@H]2C[C@H](O)[C@@H](CO)O2)c(=O)n1	inactive and inconclusive: 863 nM [inhibitor, full curve, poor fit]	–
CCOc1nc(C#N)nc(N2CCCCC2)n1	inactive	–
CC(=O)Nc1ccc(NC(=O)c2cc3c(=O)n4ccccc4nc3n2C)cc1	inconclusive: 141 µM [inhibitor, partial curve, poor fit]	–
Cc1cc(Br)cn2c(Cc3ccccc3)c(-c3ccc(F)cc3)nc12	inconclusive: 79.4 µM [inhibitor, single point]	–
COc1cc2c(cc1OC)C(=O)N1[C@H]3c4ccccc4OC[C@@H]3[C@H](c3ccccc3)[C@]1(C)C(=O)N2	inactive	–
CCOc1ccc(NC(=O)CN(C)C(=O)c2ccc(C3SCCS3)cc2)cc1OCC	inconclusive: 158 µM [inhibitor, partial curve, poor fit]	–
